According to patent US12617757B2, “Compounds and modules for inhibition of pre-miR-21 and their use in treatment of certain cancers” (University of Florida Research Foundation, Incorporated, priority 2019, dated 2026):

System: miRNAs in MDA-MB-231
Assay: RT-qPCR miRNA profiling in MDA-MB-231 cells, Gini coefficient
Format: cell-based, human
Settings: 1 10 μM, 2 1 μM, 5 0.05 μM

| Compound | Gini coefficient (GC), all miRNAs measured | Gini coefficient (GC), miRNA isoforms with the same A and U bulge as miR-21 |
| --- | --- | --- |
| CCCN(CC(=O)N(CCC)CC(=O)N(CCC)CC(=O)N(CC(N)=O)Cc1cn(CCCNC(=O)CCCOc2ccc(-c3nc4cc(-c5ccc(N6CCN(C)CC6)cc5)ccc4[nH]3)cc2)nn1)C(=O)CNCc1cn(CCCNC(=O)CCCOc2ccc(-c3nc4cc(-c5ccc(N6CCN(C)CC6)cc5)ccc4[nH]3)cc2)nn1 [Compound 2] | 0.68 | 0.65 |
| CN1CCN(c2ccc(-c3ccc4[nH]c(-c5ccc(OCCCC(=O)NCCCN=[N+]=[N-])cc5)nc4c3)cc2)CC1 [Compound 1] | 0.52 | 0.31 |
| CCCN(CC(=O)N(CCC)CC(=O)N(CCC)CC(=O)N(CC(=O)NCCOCCOCCOCCOc1ccc(C=C2SC(Nc3ccccc3)=C(C(=O)OCC)C2=O)cc1O)Cc1cn(CCCNC(=O)CCCOc2ccc(-c3nc4cc(-c5ccc(N6CCN(C)CC6)cc5)ccc4[nH]3)cc2)nn1)C(=O)CN(Cc1cn(CCCNC(=O)CCCOc2ccc(-c3nc4cc(-c5ccc(N6CCN(C)CC6)cc5)ccc4[nH]3)cc2)nn1)C(C)=O [Compound 5] | 0.84 | 0.78 |
